This note sets out measurements from PMC7819943, “Rice protein-binding microarrays: a tool to detect cis-acting elements near promoter regions in rice”.

Sequences of proteins named here, by UniProt entry; tags and fusion partners are left off.
UniProt Q0JBA9, entry or part of it: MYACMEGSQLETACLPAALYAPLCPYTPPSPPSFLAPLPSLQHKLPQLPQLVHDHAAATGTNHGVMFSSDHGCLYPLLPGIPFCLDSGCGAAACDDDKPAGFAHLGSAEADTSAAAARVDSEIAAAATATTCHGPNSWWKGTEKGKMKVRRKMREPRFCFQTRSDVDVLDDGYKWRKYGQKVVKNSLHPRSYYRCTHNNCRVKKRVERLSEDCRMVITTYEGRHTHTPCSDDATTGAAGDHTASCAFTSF

This is one part of the list.

The test concerns the target OsWRKY34 (Oryza sativa, UniProt Q0JBA9 1-250). As to the kind of experiment: protein-binding microarray (RPBM); PBS, 2% BSA, 51.3 ng/ul salmon testes DNA, 50 uM zinc acetate, 200 nM TF, 25 C, 1 h; high values mean tight binding. As to conditions: protein: recombinant; tags: N-terminal polyhistidine and DsRed monomer fusion (pET32a); label: CyDye5-dUTP incorporated in the synthesized complementary strand; 3' TTTTT single-stranded linker to array surface; dsDNA, one strand shown. In a few lines:
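The binding signal is fluorescence intensity per array feature (arbitrary units). Readings came from an Axon 4000B scanner after a washed, 2% BSA-blocked, double-stranded custom Agilent array had been incubated for 1 h at 25 °C with 200 nM protein and 50 µM zinc acetate. The protein was a Ni–NTA-purified transcription factor fused N-terminally to polyhistidine and DsRed, expressed in E. coli BL21-CodonPlus.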
With “CCAATAAGTGTGACATTCAATTCCTACGTTTTTTCTATTCCGGAGTCACCTAGTGCAG”, the binding signal is 8200 fluorescence intensity (a.u.).

With “ACTGTCCTGTCGTTAATTCATGAGTTAATCCTATACGGTTCGGAGTCACCTAGTGCAG”, the binding signal was 10500 fluorescence intensity (a.u.).

For the sequence “CTTCAGTCACGGCCCTATTGTACTGTTCCCAGTTACACCCCGGAGTCACCTAGTGCAG”, the binding signal is 8720 fluorescence intensity (a.u.).

As for “CGTATGACTAGTGCTTGTTTATTTTATTTTTTTTCACACGCGGAGTCACCTAGTGCAG”, the binding signal was 9830 fluorescence intensity (a.u.).

Take “TTTCTTAGAACTCATATTTGTCGATGGCATTTTTTGAATTCGGAGTCACCTAGTGCAG”: the binding signal is 8050 fluorescence intensity (a.u.).

On to “ACCCTGAGCCGTTCACGTTTCCCATCCCATTCTCATCATCCGGAGTCACCTAGTGCAG”, for which the binding signal was 9720 fluorescence intensity (a.u.).

As for “CACGCTGTCCGGTCTCTCTTTCTATCTTGTGTTGACTCTGCGGAGTCACCTAGTGCAG”, the binding signal is 14900 fluorescence intensity (a.u.).

Turning to “GCAACACTAGACTTCCTATTTTCGGATGATCGGATCACCTCGGAGTCACCTAGTGCAG”, the binding signal was 8120 fluorescence intensity (a.u.).

With “TTCAAATTGTTGCTGCTCTGTGCTAGCCTTTTCATATTGACGGAGTCACCTAGTGCAG”, the binding signal was 9110 fluorescence intensity (a.u.).

For the sequence “CGTCGGCGGCGGCATCGCCGGTTGGCTGGGGTTGGAGAAGCGGAGTCACCTAGTGCAG”, the binding signal was 9830 fluorescence intensity (a.u.).

On to “CTATGTTCATCCTCGTGTCATATTGTGTTCATCTTCATACCGGAGTCACCTAGTGCAG”, for which the binding signal is 11600 fluorescence intensity (a.u.).

Take “ATATCTTACTTTACAGTATACAACATCTGCTTGCAACATGCGGAGTCACCTAGTGCAG”: the binding signal is 8090 fluorescence intensity (a.u.).

Consider “CGTCTCCTGGTGTCTGGAATTGGGCGGCGGCGGCGGGATGCGGAGTCACCTAGTGCAG”, for which the binding signal is 11800 fluorescence intensity (a.u.).

For “GTGGTCGTCGCTGATAGCGAGGTGGGTAGGGTTAATTTTGCGGAGTCACCTAGTGCAG”, the binding signal was 11000 fluorescence intensity (a.u.).

Turning to “GATCGAGTCATACACATTTGACCAACCAAAGCCTTAGACTCGGAGTCACCTAGTGCAG”, the binding signal was 9780 fluorescence intensity (a.u.).

Turning to “TTAACATATTTAGTGCTACTCTTTTCACTTTATTTAACTACGGAGTCACCTAGTGCAG”, the binding signal is 9470 fluorescence intensity (a.u.).

Take “TAGTATTTCTCTGATCTATTACTTCATGATCGGCTACATCCGGAGTCACCTAGTGCAG”: the binding signal is 8060 fluorescence intensity (a.u.).

As for “CGTGGGTAATTTGGTTCCTCTTCTTTTTTTGGCTTCCTTTCGGAGTCACCTAGTGCAG”, the binding signal was 8440 fluorescence intensity (a.u.).

As to “TCAATGTGGTTGGGTGTGGTACTAGCTATAGCTGCATCCACGGAGTCACCTAGTGCAG”, the binding signal was 8560 fluorescence intensity (a.u.).

Take “AGGAGGTGGTGGGTGGTGGTGGCTGCGGCTTGGCGCGATGCGGAGTCACCTAGTGCAG”: the binding signal is 9400 fluorescence intensity (a.u.).

Turning to “CCCACCACACCAAGATGCCACCTTTTTTTCCCTTTTCTTTCGGAGTCACCTAGTGCAG”, the binding signal is 10400 fluorescence intensity (a.u.).

Consider “GTTTTACATTTGTCCTAAATCAAACATATCTATCTTTGACCGGAGTCACCTAGTGCAG”, for which the binding signal is 8180 fluorescence intensity (a.u.).

As for “CGGTCATTAATCCCACTCATTTCCATGGTCATAAGATACGCGGAGTCACCTAGTGCAG”, the binding signal was 9410 fluorescence intensity (a.u.).

Regarding “CCGCCTCGACGACTTCTCGACCGACACCATCCTCGAGCTCCGGAGTCACCTAGTGCAG”, the binding signal was 14600 fluorescence intensity (a.u.).

As for “CTGGTTGGTAGGTACTTGCTTGATTAGATTGGGTTTGGTTCGGAGTCACCTAGTGCAG”, the binding signal is 11500 fluorescence intensity (a.u.).

Take “CCGCACGCCCACACCGCATCCGCATCTCCCGATTCCTCGTCGGAGTCACCTAGTGCAG”: the binding signal is 8140 fluorescence intensity (a.u.).

“ACTTCATTTCCCACTCCTAAGTCCTAACCCTGATACTCGCCGGAGTCACCTAGTGCAG”: the binding signal was 8520 fluorescence intensity (a.u.).

Take “CTGACCCTTGTTTAAATTTCGTACTTGGACAATTGACATTCGGAGTCACCTAGTGCAG”: the binding signal was 8420 fluorescence intensity (a.u.).

“ATACGCCTTTTAAAATATCGTCATTGAGCTTAACCTTTCTCGGAGTCACCTAGTGCAG”: the binding signal was 10300 fluorescence intensity (a.u.).

Consider “TGCCATCTGTACACCTTTTTTTTTTCGAACAACTGACTTTCGGAGTCACCTAGTGCAG”, for which the binding signal was 8820 fluorescence intensity (a.u.).

For “CTCGCACGGTGGCATCGCCAAGCTTTGACTTATCTCCTAGCGGAGTCACCTAGTGCAG”, the binding signal is 8130 fluorescence intensity (a.u.).

For “ATAAAATCTTGCTGTCCTGGCTTTTTTTTTTCTTTCATTTCGGAGTCACCTAGTGCAG”, the binding signal was 8840 fluorescence intensity (a.u.).

Take “CCGCCTGCCGCCGTCCGTCCGCCAACCGCATGCCGTCCCCCGGAGTCACCTAGTGCAG”: the binding signal is 8950 fluorescence intensity (a.u.).

As to “TTCCCGACCGTACCGATACCGTTTCCGCAAAACTAATATACGGAGTCACCTAGTGCAG”, the binding signal is 9080 fluorescence intensity (a.u.).

With “CATTTCTCTTTCCCATTTGCCGAACACTACCTAAAATCTTCGGAGTCACCTAGTGCAG”, the binding signal was 8760 fluorescence intensity (a.u.).

Regarding “AGGAAGCCTTTTGCCGTCGTGTTCTTCCATCCTCTGCGGCCGGAGTCACCTAGTGCAG”, the binding signal is 8660 fluorescence intensity (a.u.).

In the case of “CCGCCGCCTTTCTCGAACCTCCGCCGCATTCTTGTCACCTCGGAGTCACCTAGTGCAG”, the binding signal is 10300 fluorescence intensity (a.u.).

Regarding “CGTCGATGAAACCCTTTTTTCCTTTCTCAGTTTCTTTCCTCGGAGTCACCTAGTGCAG”, the binding signal was 8350 fluorescence intensity (a.u.).

For the sequence “TATTATTTGCATTATCGCCTTAACCCCACATATATCCATACGGAGTCACCTAGTGCAG”, the binding signal is 8690 fluorescence intensity (a.u.).

As to “GAACCGGCACCTTTAACCATGCTAGAGCCAGCACCTATAACGGAGTCACCTAGTGCAG”, the binding signal was 8740 fluorescence intensity (a.u.).

As to “GGGCTGAATTTATTCTTGTTTTAGTGACATTCAATATGCTCGGAGTCACCTAGTGCAG”, the binding signal was 8230 fluorescence intensity (a.u.).

Take “GTCTCTTCCTTTCATGTCTTGTATGTTATCCAAACAATATCGGAGTCACCTAGTGCAG”: the binding signal is 10300 fluorescence intensity (a.u.).
